Experimental data published in US20200222474A1, “COMPOSITIONS AND METHODS FOR INCREASING PHYTOCHEMICAL BIOAVAILABLITY AND BIOACTIVITY” (North Carolina State University, priority 2017, published 2020).
This continues a long series; more values of the same kind are listed elsewhere.

System: L. acidophilus NCFM
Assay: RNA-seq transcriptional analysis of L. acidophilus NCFM growing on plant glycosides
Format: cell-based, Lactobacillus acidophilus
[1] = LBA0160 Anaerobic ribonucleoside triphosphate reductase, COG F
[2] = LBA0197 Oligopeptide binding protein, COG E
[3] = LBA0198 Peptide binding protein, COG E
[4] = LBA0225 6-p-beta-glucosidase, COG G
[5] = LBA0227 Celiohiose-specific PTS IIC, COG G
[6] = LBA0228 Transcriptional regulator, COG G
[7] = LBA0455 Mannose-specific PTS system component IIC, COG G
[8] = LBA0456 Mannose-specific PTS system component IID, COG G
[9] = LBA0491 Cellobiose-specific PTS IIC, COG G
[10] = LBA0503 ABC transporter permease, COG G
[11] = LBA0606 PTS system arbutin-like IIBC component, COG G
[12] = LBA0609 PTS enzyme II ABC component, COG G
[13] = LBA0680 Glycogen branching enzyme, COG G
[14] = LBA0681 Glucose-1-phosphate adenylyltransferase, COG G
[15] = LBA0682 Glucose-1-phosphate adenylyltransferase, COG G
[16] = LBA0683 Glycogen synthase, COG G
[17] = LBA0685 Glycogen phosphorylase, COG G
[18] = LBA0686 Amylopullulanase, COG G
[19] = LBA0687 Phosphoglucomutase, COG G
[20] = LBA0724 Transcription antiterminator, COG G
[21] = LBA0726 Phospho-beta-galactosidase II, COG G
[22] = LBA0874 Phospho-beta-galactosidase I, COG G
[23] = LBA0875 Transcriptional regulator, COG G
[24] = LBA0876 Cellobiose-specific PTS IIC, COG G
[25] = LBA0877 Cellobiose-specific PTS IIA, COG G
[26] = LBA0986 Galactose mutarotase related ensyme, COG G
[27] = LBA1102 Transmembrane protein, COG G
[28] = LBA1400 Oligopeptide ABC transporter substrate binding protein, COG E
[29] = LBA1433 Dihydroxyacetone kinase, COG G
[30] = LBA1434 Dihydroxyacetone kinase, COG G
[31] = LBA1974 Pyruvate oxidase, COG EH
[32] = gene LBA0863 (Hypothetical protein)
[33] = gene LBA0878 (Hypothetical protein)
[34] = gene LBA0888 (Hypothetical protein)
[35] = gene LBA0987 (Hypothetical protein)
[36] = gene LBA1019 (Mucus binding protein)
[37] = gene LBA1020 (Mucus binding protein)
[38] = gene LBA1227 (Hypothetical protein)
[39] = gene LBA1370 (Putative bacteriophage-related protein)
[40] = gene LBA1409 (Hypothetical protein LBA1409)
[41] = gene LBA1460 (Mucus binding protein precursor)
[42] = gene LBA1461 (Putative regulator)
[43] = gene LBA1539 (Hypothetical protein)
[44] = gene LBA1608 (Hypothetical protein)
[45] = gene LBA1612 (Fibrinogen-binding protein)
[46] = gene LBA1652 (Mucus binding protein precursor Mub)
[47] = gene LBA1655 (Hypothetical protein)
[48] = gene LBA1686 (Hypothetical protein)
[49] = gene LBA1693 (Hypothetical protein)
[50] = gene LBA1694 (Hypothetical protein)
[51] = gene LBA1709 (Mucus binding protein precursor Mub)
[52] = gene LBA1784 (Hypothetical protein)
[53] = gene LBA1786 (Hypothetical protein)
[54] = gene LBA1791 (Hypothetical protein)
[55] = gene LBA1792 (Hypothetical protein)
[56] = gene LBA1794 (Gassericin K7 B accessory protein)
[57] = gene LBA1797 (Hypothetical protein)
[58] = gene LBA1801 (Hypothetical protein)
[59] = gene LBA1802 (Hypothetical protein)
[60] = gene LBA1803 (Hypothetical protein.)
[61] = gene LBA1804 (Hypothetical protein)
[62] = gene LBA1805 (Hypothetical protein)
[63] = gene without printed locus tag, last line of Table 5 (Hypothetical protein)

## OC[C@H]1O[C@@H](O[C@H]2[C@H](O)[C@@H](O)[C@@H](O)O[C@@H]2CO)[C@H](O)[C@@H](O)[C@H]1O [Lac]
LBA0146 PTS system HA, COG G
  Log2 differential normalized TPM ratio compared to glucose: 1.6
  Transcripts per million (rpm): 23.8 rpm
[1]
  Log2 differential normalized TPM ratio compared to glucose: 0.9
  Transcripts per million (rpm): 333.4 rpm
[2]
  Log2 differential normalized TPM ratio compared to glucose: −2.3
  Transcripts per million (rpm): 13.9 rpm
[3]
  Log2 differential normalized TPM ratio compared to glucose: −3
  Transcripts per million (rpm): 5.4 rpm
[4]
  Log2 differential normalized TPM ratio compared to glucose: −0.4
  Transcripts per million (rpm): 21.5 rpm
[5]
  Log2 differential normalized TPM ratio compared to glucose: 0.3
  Transcripts per million (rpm): 4.5 rpm
[6]
  Log2 differential normalized TPM ratio compared to glucose: 0.1
  Transcripts per million (rpm): 15.1 rpm
[7]
  Log2 differential normalized TPM ratio compared to glucose: 1
  Transcripts per million (rpm): 599.9 rpm
[8]
  Log2 differential normalized TPM ratio compared to glucose: 1
  Transcripts per million (rpm): 1025.4 rpm
[9]
  Log2 differential normalized TPM ratio compared to glucose: 2.1
  Transcripts per million (rpm): 31 rpm
[10]
  Log2 differential normalized TPM ratio compared to glucose: 1.2
  Transcripts per million (rpm): 7.3 rpm
LBA0505 Fructosidase, COG G
  Log2 differential normalized TPM ratio compared to glucose: 0.9
  Transcripts per million (rpm): 6.9 rpm
[11]
  Log2 differential normalized TPM ratio compared to glucose: 2.2
  Transcripts per million (rpm): 20.6 rpm
[12]
  Log2 differential normalized TPM ratio compared to glucose: 1.6
  Transcripts per million (rpm): 153.8 rpm
[13]
  Log2 differential normalized TPM ratio compared to glucose: 1
  Transcripts per million (rpm): 131.9 rpm
[14]
  Log2 differential normalized TPM ratio compared to glucose: 1.8
  Transcripts per million (rpm): 147.4 rpm
[15]
  Log2 differential normalized TPM ratio compared to glucose: 1.8
  Transcripts per million (rpm): 175.4 rpm
[16]
  Log2 differential normalized TPM ratio compared to glucose: 1.9
  Transcripts per million (rpm): 224.9 rpm
[17]
  Log2 differential normalized TPM ratio compared to glucose: 1.8
  Transcripts per million (rpm): 225.7 rpm
[18]
  Log2 differential normalized TPM ratio compared to glucose: 1.8
  Transcripts per million (rpm): 228.8 rpm
[19]
  Log2 differential normalized TPM ratio compared to glucose: 1.7
  Transcripts per million (rpm): 409.4 rpm
[20]
  Log2 differential normalized TPM ratio compared to glucose: 1.8
  Transcripts per million (rpm): 105.4 rpm
LBA0725 PTS EII system, COG G
  Log2 differential normalized TPM ratio compared to glucose: 2.7
  Transcripts per million (rpm): 12.1 rpm
[21]
  Log2 differential normalized TPM ratio compared to glucose: 2.7
  Transcripts per million (rpm): 133.6 rpm
[22]
  Log2 differential normalized TPM ratio compared to glucose: 1.1
  Transcripts per million (rpm): 32.5 rpm
[23]
  Log2 differential normalized TPM ratio compared to glucose: 0.4
  Transcripts per million (rpm): 16.3 rpm
[24]
  Log2 differential normalized TPM ratio compared to glucose: 2.9
  Transcripts per million (rpm): 742.4 rpm
[25]
  Log2 differential normalized TPM ratio compared to glucose: 3.1
  Transcripts per million (rpm): 514.3 rpm
LBA0911 Aminopeptidase, COG E
  Log2 differential normalized TPM ratio compared to glucose: 1.1
  Transcripts per million (rpm): 369.7 rpm
[26]
  Log2 differential normalized TPM ratio compared to glucose: 0.6
  Transcripts per million (rpm): 140.8 rpm
LBA1022 Arginase, COG E
  Log2 differential normalized TPM ratio compared to glucose: 0.2
  Transcripts per million (rpm): 291.6 rpm
LBA1055 Mutator protein, COG F
  Log2 differential normalized TPM ratio compared to glucose: −0.3
  Transcripts per million (rpm): 12.1 rpm
[27]
  Log2 differential normalized TPM ratio compared to glucose: 1.3
  Transcripts per million (rpm): 90.5 rpm
[28]
  Log2 differential normalized TPM ratio compared to glucose: 1
  Transcripts per million (rpm): 22.4 rpm
[29]
  Log2 differential normalized TPM ratio compared to glucose: 2.6
  Transcripts per million (rpm): 35.4 rpm
[30]
  Log2 differential normalized TPM ratio compared to glucose: 3.4
  Transcripts per million (rpm): 36.8 rpm
[31]
  Log2 differential normalized TPM ratio compared to glucose: 2.4
  Transcripts per million (rpm): 446.4 rpm
Gene LBA0802 (Hypothetical protein)
  Log2 differential normalized TPM ratio compared to glucose: 0.3
[32]
  Log2 differential normalized TPM ratio compared to glucose: 0.8
  Transcripts per million (rpm): 86.1 rpm
[33]
  Log2 differential normalized TPM ratio compared to glucose: 1.1
  Transcripts per million (rpm): 8.4 rpm
[34]
  Log2 differential normalized TPM ratio compared to glucose: 1
  Transcripts per million (rpm): 64 rpm
[35]
  Log2 differential normalized TPM ratio compared to glucose: 2.9
  Transcripts per million (rpm): 359.5 rpm
[36]
  Log2 differential normalized TPM ratio compared to glucose: 1
  Transcripts per million (rpm): 26.1 rpm
[37]
  Log2 differential normalized TPM ratio compared to glucose: 0.1
  Transcripts per million (rpm): 153.9 rpm
[38]
  Log2 differential normalized TPM ratio compared to glucose: 0.5
  Transcripts per million (rpm): 99.5 rpm
[39]
  Log2 differential normalized TPM ratio compared to glucose: 0.5
  Transcripts per million (rpm): 54.3 rpm
[40]
  Log2 differential normalized TPM ratio compared to glucose: 0.6
  Transcripts per million (rpm): 7 rpm
[41]
  Log2 differential normalized TPM ratio compared to glucose: 4.2
  Transcripts per million (rpm): 186.9 rpm
[42]
  Log2 differential normalized TPM ratio compared to glucose: 4.9
  Transcripts per million (rpm): 168.9 rpm
[43]
  Log2 differential normalized TPM ratio compared to glucose: 2.7
  Transcripts per million (rpm): 160.7 rpm
[44]
  Log2 differential normalized TPM ratio compared to glucose: 0.7
  Transcripts per million (rpm): 34.4 rpm
Gene LBA1611 (Surface protein)
  Log2 differential normalized TPM ratio compared to glucose: −0.5
  Transcripts per million (rpm): 119.5 rpm
[45]
  Log2 differential normalized TPM ratio compared to glucose: 0.1
  Transcripts per million (rpm): 144.9 rpm
Gene LBA1633 (Surface protein)
  Log2 differential normalized TPM ratio compared to glucose: 1.2
  Transcripts per million (rpm): 17.3 rpm
[46]
  Log2 differential normalized TPM ratio compared to glucose: 0.6
  Transcripts per million (rpm): 17.8 rpm
[47]
  Log2 differential normalized TPM ratio compared to glucose: 0.3
  Transcripts per million (rpm): 5.1 rpm
[48]
  Log2 differential normalized TPM ratio compared to glucose: −0.3
  Transcripts per million (rpm): 148.3 rpm
[49]
  Log2 differential normalized TPM ratio compared to glucose: 1
  Transcripts per million (rpm): 220.4 rpm
[50]
  Log2 differential normalized TPM ratio compared to glucose: 1
  Transcripts per million (rpm): 171.1 rpm
[51]
  Log2 differential normalized TPM ratio compared to glucose: 0.5
  Transcripts per million (rpm): 3.7 rpm
[52]
  Log2 differential normalized TPM ratio compared to glucose: 2
  Transcripts per million (rpm): 170.8 rpm
[53]
  Log2 differential normalized TPM ratio compared to glucose: 2.2
  Transcripts per million (rpm): 111.3 rpm
[54]
  Log2 differential normalized TPM ratio compared to glucose: 2.2
  Transcripts per million (rpm): 84.6 rpm
[55]
  Log2 differential normalized TPM ratio compared to glucose: 2.3
  Transcripts per million (rpm): 73.8 rpm
[56]
  Log2 differential normalized TPM ratio compared to glucose: 2.2
  Transcripts per million (rpm): 70.8 rpm
[57]
  Log2 differential normalized TPM ratio compared to glucose: 4.8
  Transcripts per million (rpm): 3776.4 rpm
[58]
  Log2 differential normalized TPM ratio compared to glucose: 2.5
  Transcripts per million (rpm): 23.8 rpm
[59]
  Log2 differential normalized TPM ratio compared to glucose: 2.5
  Transcripts per million (rpm): 44.3 rpm
[60]
  Log2 differential normalized TPM ratio compared to glucose: 3
  Transcripts per million (rpm): 109.5 rpm
[61]
  Log2 differential normalized TPM ratio compared to glucose: 3.7
  Transcripts per million (rpm): 246.4 rpm
[62]
  Log2 differential normalized TPM ratio compared to glucose: 3.9
  Transcripts per million (rpm): 452.7 rpm
[63]
  Log2 differential normalized TPM ratio compared to glucose: 0.2
  Transcripts per million (rpm): 21.6 rpm
